Measurements reported in PubChem BioAssay AID1259308 (NCATS, 2017)
The whole screen tested about 59,000 reagents; this is a part drawn at random. About 1,510 of all reagents (2.6%) count as active. 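Calls use total luciferase alone and ignore viability, so some active siRNAs may act by altering cell number.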 The numbers tell different reagents against one gene apart. Further read-outs or replicates are left out here. No sequences are given here.

Assay: 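Candidate targets for better recombinant protein yield in mammalian cells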 (primary screen)
Cells: human HEK293 embryonic kidney cells stably expressing firefly luciferase (HEK-CMV-Luc2-Hygro)
Reagents: single siRNA against human genes, 0.8 pmol siRNA per well
Time to read-out: 72 h
Detection: 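Luciferase light (ONE-Glo) measured on one replicate plate set and viability (CellTiter-Glo) on the other, scaled to a negative control siRNA, with robust z-scores and luciferase per cell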
Scale: total luciferase, z-score and total luciferase, % of control: higher = more reporter protein produced; luciferase per cell, z-score: higher = more reporter output per viable cell
Call rule: 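Active when the median/MAD z-score for overall luciferase is greater than 3; a gene was taken forward for validation with new siRNAs if at least two of its three siRNAs passed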
Calls: active = raised luciferase; inactive = no rise

gene | siRNA no. | total luciferase, z-score | total luciferase, % of control | luciferase per cell, z-score | call
DSE | 1 | 3.37 | 149 | 2.11 | active
DSE | 2 | 0.128 | 84.4 | -0.156 | inactive
DSE | 3 | -1.36 | 54.9 | -0.644 | inactive
PACSIN2 | 1 | -0.337 | 75.2 | 1.02 | inactive
PACSIN2 | 2 | 2.26 | 127 | 2.06 | inactive
PACSIN2 | 3 | 1.65 | 115 | 1.2 | inactive
ZNF550 | 1 | 0.794 | 97.7 | 0.457 | inactive
ZNF550 | 2 | 1.45 | 111 | 1.95 | inactive
ZNF550 | 3 | 1.41 | 110 | 0.706 | inactive
OR7C2 | 1 | -1.52 | 51.7 | -1.72 | inactive
OR7C2 | 2 | -0.168 | 78.5 | -0.396 | inactive
OR7C2 | 3 | 1.76 | 117 | 1.17 | inactive
CD300LG | 1 | 2.22 | 126 | 2.06 | inactive
CD300LG | 2 | -0.098 | 79.9 | 0.6 | inactive
CD300LG | 3 | 0.107 | 84 | -0.491 | inactive
ERGIC1 | 1 | 1.26 | 107 | 1.6 | inactive
ERGIC1 | 2 | 1.22 | 106 | 1.77 | inactive
ERGIC1 | 3 | -0.214 | 77.6 | -0.754 | inactive
PSORS1C1 | 1 | -1.58 | 50.4 | -1.56 | inactive
PSORS1C1 | 2 | -0.115 | 79.6 | -0.333 | inactive
PSORS1C1 | 3 | 1.03 | 102 | 0.793 | inactive
NUTM2F | 1 | 0.0557 | 83 | 0.656 | inactive
NUTM2F | 2 | -1.09 | 60.1 | -1.33 | inactive
NUTM2F | 3 | 0.0996 | 83.9 | 0.429 | inactive
SCX | 1 | 3.01 | 142 | 2.01 | active
SCX | 2 | -0.207 | 77.8 | 0.252 | inactive
SCX | 3 | 0.882 | 99.4 | 0.621 | inactive
MAPKBP1 | 1 | 0.0696 | 83.3 | 0.192 | inactive
MAPKBP1 | 2 | 0.49 | 91.6 | 0.865 | inactive
MAPKBP1 | 3 | 0.174 | 85.3 | 0.593 | inactive
PDZRN3 | 1 | -0.799 | 66 | -1.22 | inactive
PDZRN3 | 2 | -1.15 | 59.1 | -1.49 | inactive
PDZRN3 | 3 | -0.765 | 66.7 | -0.653 | inactive
TMEM184A | 1 | -0.888 | 64.2 | -0.476 | inactive
TMEM184A | 2 | 1.09 | 103 | 1.08 | inactive
TMEM184A | 3 | -0.474 | 72.5 | -0.0568 | inactive
ST6GAL1 | 1 | -1.06 | 60.7 | -1.16 | inactive
ST6GAL1 | 2 | -1.15 | 59.1 | -1.76 | inactive
ST6GAL1 | 3 | -0.372 | 74.5 | 0.284 | inactive
DRAXIN | 1 | -0.454 | 72.9 | -0.478 | inactive
DRAXIN | 2 | 0.0737 | 83.4 | 0.0786 | inactive
DRAXIN | 3 | -0.171 | 78.5 | 0.161 | inactive
RPS12P22 | 1 | -2.65 | 29.2 | -1.79 | inactive
RPS12P22 | 2 | -0.723 | 67.5 | -0.574 | inactive
RPS12P22 | 3 | -2.84 | 25.4 | -2.69 | inactive
TERB2 | 1 | 2.56 | 133 | 2.41 | inactive
TERB2 | 2 | -0.403 | 73.9 | 0.428 | inactive
TERB2 | 3 | 0.878 | 99.4 | 0.404 | inactive
EDA | 1 | 1.6 | 114 | 1.5 | inactive
EDA | 2 | -1.18 | 58.4 | -0.595 | inactive
EDA | 3 | -0.0434 | 81 | -0.682 | inactive
RPL7P56 | 1 | 0.254 | 86.9 | 1.58 | inactive
RPL7P56 | 2 | -1.56 | 50.8 | -1.57 | inactive
RPL7P56 | 3 | -3.41 | 14 | -3.94 | inactive
CREBL2 | 1 | -1.31 | 55.8 | -0.828 | inactive
CREBL2 | 2 | 2.13 | 124 | 1.09 | inactive
CREBL2 | 3 | -0.0669 | 80.6 | -0.135 | inactive
RAP2A | 1 | 1.02 | 102 | 1.24 | inactive
RAP2A | 2 | -1.44 | 53.2 | -1.06 | inactive
RAP2A | 3 | 0.261 | 87.1 | 0.589 | inactive
KRTAP6-2 | 1 | 0.342 | 88.7 | 0.247 | inactive
KRTAP6-2 | 2 | -0.998 | 62 | -0.613 | inactive
KRTAP6-2 | 3 | -0.0966 | 80 | -0.587 | inactive
ACOT7 | 1 | -2.18 | 38.5 | -2.44 | inactive
ACOT7 | 2 | 1.08 | 103 | 1.28 | inactive
ACOT7 | 3 | -0.515 | 71.6 | 0.456 | inactive
ENTREP2 | 1 | -0.976 | 62.5 | -0.682 | inactive
ENTREP2 | 2 | 1.21 | 106 | 1.4 | inactive
ENTREP2 | 3 | 0.0112 | 82.1 | 0.0258 | inactive
GNGT1 | 1 | -0.912 | 63.7 | -0.841 | inactive
GNGT1 | 2 | 0.866 | 99.1 | 1.22 | inactive
GNGT1 | 3 | 0.203 | 85.9 | 0.105 | inactive
C10orf62 | 1 | -0.756 | 66.8 | -0.0222 | inactive
C10orf62 | 2 | -0.793 | 66.1 | -0.484 | inactive
C10orf62 | 3 | 0.554 | 92.9 | 0.865 | inactive
